Experimental data as given in publication PMC8556400.
No constants are given. Whether binding was seen depends on the method and setting. Binding seen in cells or lysates may run through a third protein. Here binding means that the protein was enriched with, or labelled near, the bait; the list need not be complete.

Amino acid sequences for entries named in this document (tags omitted).
UniProt Q8K310: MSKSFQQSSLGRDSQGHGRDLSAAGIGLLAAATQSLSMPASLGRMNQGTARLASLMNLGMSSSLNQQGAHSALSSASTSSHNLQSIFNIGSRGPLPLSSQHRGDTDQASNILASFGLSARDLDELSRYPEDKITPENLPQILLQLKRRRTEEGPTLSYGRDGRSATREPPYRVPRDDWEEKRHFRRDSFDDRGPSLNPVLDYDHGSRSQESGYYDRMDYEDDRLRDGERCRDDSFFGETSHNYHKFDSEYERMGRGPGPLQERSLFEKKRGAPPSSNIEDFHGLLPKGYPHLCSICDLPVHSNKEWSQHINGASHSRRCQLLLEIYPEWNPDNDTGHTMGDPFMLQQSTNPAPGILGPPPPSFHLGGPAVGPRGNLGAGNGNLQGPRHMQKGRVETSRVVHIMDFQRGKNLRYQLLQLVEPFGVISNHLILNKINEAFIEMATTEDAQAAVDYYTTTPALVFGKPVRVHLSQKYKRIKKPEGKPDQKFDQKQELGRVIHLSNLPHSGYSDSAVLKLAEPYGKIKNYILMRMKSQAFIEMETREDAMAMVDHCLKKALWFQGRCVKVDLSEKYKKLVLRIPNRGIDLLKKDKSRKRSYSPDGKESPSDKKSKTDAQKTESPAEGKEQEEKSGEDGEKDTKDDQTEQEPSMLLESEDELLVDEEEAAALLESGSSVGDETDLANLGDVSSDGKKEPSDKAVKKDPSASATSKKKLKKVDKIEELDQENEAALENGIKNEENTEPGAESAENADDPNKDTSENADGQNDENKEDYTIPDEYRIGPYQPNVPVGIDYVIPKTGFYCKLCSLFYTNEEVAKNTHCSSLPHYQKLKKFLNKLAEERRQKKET
UniProt P23198: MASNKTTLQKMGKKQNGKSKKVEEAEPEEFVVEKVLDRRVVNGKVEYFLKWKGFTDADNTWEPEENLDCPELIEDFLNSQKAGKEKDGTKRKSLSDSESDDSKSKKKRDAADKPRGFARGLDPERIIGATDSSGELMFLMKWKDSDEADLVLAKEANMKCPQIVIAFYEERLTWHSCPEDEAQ

B1: CCCTC-binding factor (CTCF) (protein, UniProt Q61164 1-736)
chain: MEGEAVEAIVEESETFIKGKERKTYQRRREGGQEEDACHLPQNQTDGGEVVQDVNSSVQMVMMEQLDPTLLQMKTEVMEGTVAPEAEAAVDDTQIITLQVVNMEEQPINIGELQLVQVPVPVTVPVATTSVEELQGAYENEVSKEGLAESEPMICHTLPLPEGFQVVKVGANGEVETLEQGELPPQEDSSWQKDPDYQPPAKKTKKTKKSKLRYTEEGKDVDVSVYDFEEEQQEGLLSEVNAEKVVGNMKPPKPTKIKKKGVKKTFQCELCSYTCPRRSNLDRHMKSHTDERPHKCHLCGRAFRTVTLLRNHLNTHTGTRPHKCPDCDMAFVTSGELVRHRRYKHTHEKPFKCSMCDYASVEVSKLKRHIRSHTGERPFQCSLCSYASRDTYKLKRHMRTHSGEKPYECYICHARFTQSGTMKMHILQKHTENVAKFHCPHCDTVIARKSDLGVHLRKQHSYIEQGKKCRYCDAVFHERYALIQHQKSHKNEKRFKCDQCDYACRQERHMIMHKRTHTGEKPYACSHCDKTFRQKQLLDMHFKRYHDPNFVPAAFVCSKCGKTFTRRNTMARHADNCAGPDGVEGENGGETKKSKRGRKRKMRSKKEDSSDSEENAEPDLDDNEEEEEPAVEIEPEPEPQPQPPPPPQPVAPAPPPAKKRRGRPPGRTNQPKQNQPTAIIQVEDQNTGAIENIIVEVKKEPDAEPAEGEEEEAQAATTDAPNGDLTPEMILSMMDR
B2: Rcc1 (regulator of chromosome condensation) (protein, UniProt Q8VE37 1-421)
chain: MPPKRIAKRRSPPEDAIPKSKKVKVSHRSHNTEPGLVLTLGQGDVGQLGLGESVLERKKPALVPLLQDVVQAEAGGMHTVCLSQSGQVYSFGCNDEGALGRDTSVEGSEMVPGKVELQEKVVQVSAGDSHTAALTEDGRVFLWGSFRDNNGVIGLLEPMKKSMVPVQVQLDAPVVKVASGNDHLVMLTNDGDLYTLGCGEQGQLGRVPELFANRGGRQGLGRLLVPRCVLLKSRGTRGRVRFQDAFCGAYFTFAISREGHVYGFGLSNYHQLGTPGTGSCFIPQNLTSFKNSTKSWVGFSGGQHHTVCMDSEGKAYSLGRAEYGRLGLGEGAEEKSIPTLISRLPVVSSVACGASVGYAVSKDGRVFAWGMGTNYQLGTGQDEDAWSPVEMTGKQLENRVVLTVSSGGQHTVLLVKDQAQS
B3: Esco2 (cohesin acetyltransferase) (protein, UniProt Q8CIB9 1-592)
chain: MMATCTPRKRKRYTLNADNDDSLLTDISSSKLRCAENLFPSPNKKHNYQSSVQKEDKSCSHQLHFPSSPLKTTENSRFSFANHSSLFKPAMSTVSFYSKEKYYLNPLERKLIRECRSICLATESGDKPIPSVTENIQRKPVCTKKNKKKQKSLTAKYQPNYKHIKSKSRNLKNSKPNQVTYKPVVDQENSCFPAKNYPNSPPRVLSQKIKPQVTLQGGAAFFVRKRNSLKKLPLEDKPLLLQKNLPEVPEGAPEAKQIPKSLLVDEKSSVKVQNARSKNEEKLRKNPSGAVVSSKECNLDKHDFPSENSLDENKTISPESVYPIFNVSSVNTKRPEEQSSVGSTACTNFLKQTNVPKNINSRDTNKGGKDQLVIDAGQKHFGTTVCKSCGMIYTASNPEDEIQHLQHHHRFLEGIKFVGWKRERVVAEFWDGKIVLVLPRDPSYAIKKVEDVQELVDLELGFQQTVPVCPDKTKTFLFIDEKRVVGCLIAEPIKQAFRVLSEPSASKECSRAWRCSDVPEPAICGISRIWVFRLKRRKRIARRLVDTVRNCFMFGCFLSTNEIAFSDPTPDGKLFATKYCNTPNFLVYNFHN

Molecular target: FlagBio-tagged Matr3 (biotinylated Matrin-3) (UniProt Q8K310)
Assay: affinity purification with mass spectrometry; biotinylated FlagBio-Matr3 recovered with streptavidin magnetic beads from MEL cells expressing BirA; cells expressing only BirA as control; co-eluted proteins separated by SDS-PAGE, in-gel trypsin digestion, LC-MS/MS

binding, binds:
Cbx3 (heterochromatin protein 1γ) (from UniProt P23198 1-183), B1, B2, B3
